Experimental data reported in the supplement of paper PMC10849652.
This is one part of the list.

Amino acid sequences for entries named in this document (tags omitted). A change or cut given only in a name is not applied to a line headed by its entry.
UniProt Q9H568: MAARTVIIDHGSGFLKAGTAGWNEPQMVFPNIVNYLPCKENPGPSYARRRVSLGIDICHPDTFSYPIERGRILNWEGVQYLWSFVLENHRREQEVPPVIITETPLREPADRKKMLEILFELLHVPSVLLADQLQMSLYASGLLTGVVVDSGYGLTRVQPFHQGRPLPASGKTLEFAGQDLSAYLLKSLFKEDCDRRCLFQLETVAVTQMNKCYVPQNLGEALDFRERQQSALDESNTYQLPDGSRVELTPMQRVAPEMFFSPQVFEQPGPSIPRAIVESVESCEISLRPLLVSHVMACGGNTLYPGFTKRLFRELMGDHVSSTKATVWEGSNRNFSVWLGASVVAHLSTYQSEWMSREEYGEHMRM
UniProt Q9Y3D8, whole entry, looked up: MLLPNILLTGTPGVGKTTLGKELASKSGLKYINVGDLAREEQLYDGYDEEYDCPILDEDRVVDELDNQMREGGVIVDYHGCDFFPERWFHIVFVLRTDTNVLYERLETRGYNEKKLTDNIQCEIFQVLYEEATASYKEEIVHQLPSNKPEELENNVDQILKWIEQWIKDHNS
UniProt O96019, whole entry, looked up: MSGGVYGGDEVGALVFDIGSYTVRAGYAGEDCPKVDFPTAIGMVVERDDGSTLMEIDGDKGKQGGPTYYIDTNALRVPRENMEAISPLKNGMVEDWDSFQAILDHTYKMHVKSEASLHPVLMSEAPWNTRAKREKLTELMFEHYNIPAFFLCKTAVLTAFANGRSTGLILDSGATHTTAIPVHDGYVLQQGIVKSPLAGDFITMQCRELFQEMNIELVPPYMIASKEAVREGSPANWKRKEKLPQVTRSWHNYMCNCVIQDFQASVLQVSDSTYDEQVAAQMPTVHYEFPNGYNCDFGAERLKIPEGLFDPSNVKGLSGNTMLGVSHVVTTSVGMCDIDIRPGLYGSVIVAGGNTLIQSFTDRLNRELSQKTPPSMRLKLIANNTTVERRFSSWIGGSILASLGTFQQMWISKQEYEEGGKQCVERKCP
UniProt P51825: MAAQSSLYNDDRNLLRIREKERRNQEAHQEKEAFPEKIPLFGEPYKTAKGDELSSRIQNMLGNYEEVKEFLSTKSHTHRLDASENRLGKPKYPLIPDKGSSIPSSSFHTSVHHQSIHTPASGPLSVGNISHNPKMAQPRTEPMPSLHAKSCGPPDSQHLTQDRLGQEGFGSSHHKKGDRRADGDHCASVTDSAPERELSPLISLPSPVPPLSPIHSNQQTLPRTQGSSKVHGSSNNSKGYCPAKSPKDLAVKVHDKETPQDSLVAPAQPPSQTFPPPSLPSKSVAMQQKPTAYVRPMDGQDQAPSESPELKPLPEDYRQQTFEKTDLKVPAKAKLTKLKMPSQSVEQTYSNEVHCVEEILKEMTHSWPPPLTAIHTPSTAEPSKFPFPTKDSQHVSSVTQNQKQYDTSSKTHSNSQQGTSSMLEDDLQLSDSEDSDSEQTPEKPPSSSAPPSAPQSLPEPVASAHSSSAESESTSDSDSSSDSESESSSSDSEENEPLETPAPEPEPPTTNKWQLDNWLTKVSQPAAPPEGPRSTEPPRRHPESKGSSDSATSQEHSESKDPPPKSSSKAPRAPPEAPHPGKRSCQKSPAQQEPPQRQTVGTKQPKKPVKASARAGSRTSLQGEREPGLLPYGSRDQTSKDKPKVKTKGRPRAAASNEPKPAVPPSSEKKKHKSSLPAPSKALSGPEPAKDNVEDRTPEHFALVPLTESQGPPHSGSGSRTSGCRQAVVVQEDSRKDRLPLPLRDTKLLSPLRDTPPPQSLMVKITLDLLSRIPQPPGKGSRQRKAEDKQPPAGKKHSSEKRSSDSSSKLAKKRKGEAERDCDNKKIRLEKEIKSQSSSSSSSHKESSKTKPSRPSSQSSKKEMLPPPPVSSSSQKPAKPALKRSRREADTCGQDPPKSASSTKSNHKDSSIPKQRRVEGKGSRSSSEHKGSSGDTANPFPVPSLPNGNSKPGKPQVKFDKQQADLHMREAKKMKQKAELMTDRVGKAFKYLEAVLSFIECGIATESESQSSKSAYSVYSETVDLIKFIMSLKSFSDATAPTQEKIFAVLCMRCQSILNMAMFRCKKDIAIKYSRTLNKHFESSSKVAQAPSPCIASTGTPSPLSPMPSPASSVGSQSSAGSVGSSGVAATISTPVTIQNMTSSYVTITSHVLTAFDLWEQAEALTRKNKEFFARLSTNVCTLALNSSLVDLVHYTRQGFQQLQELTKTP
UniProt Q9UHX3: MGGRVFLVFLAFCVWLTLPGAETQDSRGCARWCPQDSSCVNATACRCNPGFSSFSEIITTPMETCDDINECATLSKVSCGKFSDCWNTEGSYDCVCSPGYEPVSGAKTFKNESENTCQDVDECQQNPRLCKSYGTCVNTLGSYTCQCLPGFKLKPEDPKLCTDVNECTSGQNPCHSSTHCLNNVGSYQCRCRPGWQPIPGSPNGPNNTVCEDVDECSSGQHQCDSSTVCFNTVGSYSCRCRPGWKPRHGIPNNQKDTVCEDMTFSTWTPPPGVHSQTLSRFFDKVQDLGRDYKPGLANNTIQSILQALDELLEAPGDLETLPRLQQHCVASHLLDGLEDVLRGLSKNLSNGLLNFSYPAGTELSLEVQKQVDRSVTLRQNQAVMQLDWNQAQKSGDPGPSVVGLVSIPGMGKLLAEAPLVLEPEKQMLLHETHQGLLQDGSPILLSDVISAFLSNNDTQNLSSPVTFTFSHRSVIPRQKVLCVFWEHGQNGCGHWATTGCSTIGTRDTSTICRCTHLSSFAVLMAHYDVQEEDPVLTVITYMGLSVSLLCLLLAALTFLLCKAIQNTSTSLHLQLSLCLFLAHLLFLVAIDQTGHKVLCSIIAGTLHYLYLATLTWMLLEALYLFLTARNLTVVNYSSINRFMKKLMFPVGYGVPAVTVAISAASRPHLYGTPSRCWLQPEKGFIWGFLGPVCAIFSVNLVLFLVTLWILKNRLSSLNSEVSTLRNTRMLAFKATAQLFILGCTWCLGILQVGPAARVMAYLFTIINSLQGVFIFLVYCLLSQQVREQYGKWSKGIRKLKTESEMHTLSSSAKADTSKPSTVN
UniProt Q7Z591: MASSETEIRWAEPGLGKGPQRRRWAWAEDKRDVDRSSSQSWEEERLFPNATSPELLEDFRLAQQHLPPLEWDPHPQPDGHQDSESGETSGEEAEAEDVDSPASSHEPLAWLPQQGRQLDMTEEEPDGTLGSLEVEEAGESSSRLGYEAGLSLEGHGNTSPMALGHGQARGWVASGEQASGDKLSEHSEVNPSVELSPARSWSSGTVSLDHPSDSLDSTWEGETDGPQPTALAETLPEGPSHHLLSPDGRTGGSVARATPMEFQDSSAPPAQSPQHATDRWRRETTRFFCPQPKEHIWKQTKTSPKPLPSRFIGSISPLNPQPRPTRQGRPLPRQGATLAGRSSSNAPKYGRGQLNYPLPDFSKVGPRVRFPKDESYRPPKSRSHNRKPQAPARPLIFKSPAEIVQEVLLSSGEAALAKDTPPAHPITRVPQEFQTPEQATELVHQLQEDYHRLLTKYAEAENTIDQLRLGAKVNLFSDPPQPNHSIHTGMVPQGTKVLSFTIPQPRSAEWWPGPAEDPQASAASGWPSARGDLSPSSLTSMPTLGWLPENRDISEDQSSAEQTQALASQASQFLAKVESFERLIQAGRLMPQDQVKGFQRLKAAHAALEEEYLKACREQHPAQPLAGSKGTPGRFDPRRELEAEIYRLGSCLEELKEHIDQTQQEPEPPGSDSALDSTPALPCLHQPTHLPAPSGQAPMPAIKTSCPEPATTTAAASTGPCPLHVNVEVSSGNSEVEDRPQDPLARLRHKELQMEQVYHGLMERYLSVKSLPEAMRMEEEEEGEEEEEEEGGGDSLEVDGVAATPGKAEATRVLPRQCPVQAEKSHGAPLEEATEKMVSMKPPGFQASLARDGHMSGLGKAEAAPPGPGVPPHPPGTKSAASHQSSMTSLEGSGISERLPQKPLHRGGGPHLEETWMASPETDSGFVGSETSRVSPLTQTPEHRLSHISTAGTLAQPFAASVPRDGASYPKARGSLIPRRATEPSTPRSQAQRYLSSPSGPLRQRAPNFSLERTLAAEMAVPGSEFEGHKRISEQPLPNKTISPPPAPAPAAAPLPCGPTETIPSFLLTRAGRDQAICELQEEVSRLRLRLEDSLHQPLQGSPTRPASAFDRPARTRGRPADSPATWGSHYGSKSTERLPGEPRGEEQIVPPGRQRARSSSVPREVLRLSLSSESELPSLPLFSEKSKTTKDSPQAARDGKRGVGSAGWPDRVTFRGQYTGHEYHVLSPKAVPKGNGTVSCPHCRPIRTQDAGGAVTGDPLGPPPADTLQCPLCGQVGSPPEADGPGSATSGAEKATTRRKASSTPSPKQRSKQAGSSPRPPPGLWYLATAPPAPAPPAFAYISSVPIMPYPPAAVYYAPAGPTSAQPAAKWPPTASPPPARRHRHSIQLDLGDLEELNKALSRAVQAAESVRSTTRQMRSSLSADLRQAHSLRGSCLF
UniProt Q16186: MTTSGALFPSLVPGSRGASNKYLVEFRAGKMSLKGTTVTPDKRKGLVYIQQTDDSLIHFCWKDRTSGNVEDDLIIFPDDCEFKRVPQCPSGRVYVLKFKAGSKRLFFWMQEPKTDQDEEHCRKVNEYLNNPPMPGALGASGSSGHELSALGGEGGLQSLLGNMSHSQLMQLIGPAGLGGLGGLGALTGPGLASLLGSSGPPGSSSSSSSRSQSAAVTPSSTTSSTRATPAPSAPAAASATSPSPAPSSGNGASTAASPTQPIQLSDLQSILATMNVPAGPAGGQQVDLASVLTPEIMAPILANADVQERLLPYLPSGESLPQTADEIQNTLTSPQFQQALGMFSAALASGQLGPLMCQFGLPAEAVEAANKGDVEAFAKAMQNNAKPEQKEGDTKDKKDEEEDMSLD
UniProt O95831, whole entry, looked up: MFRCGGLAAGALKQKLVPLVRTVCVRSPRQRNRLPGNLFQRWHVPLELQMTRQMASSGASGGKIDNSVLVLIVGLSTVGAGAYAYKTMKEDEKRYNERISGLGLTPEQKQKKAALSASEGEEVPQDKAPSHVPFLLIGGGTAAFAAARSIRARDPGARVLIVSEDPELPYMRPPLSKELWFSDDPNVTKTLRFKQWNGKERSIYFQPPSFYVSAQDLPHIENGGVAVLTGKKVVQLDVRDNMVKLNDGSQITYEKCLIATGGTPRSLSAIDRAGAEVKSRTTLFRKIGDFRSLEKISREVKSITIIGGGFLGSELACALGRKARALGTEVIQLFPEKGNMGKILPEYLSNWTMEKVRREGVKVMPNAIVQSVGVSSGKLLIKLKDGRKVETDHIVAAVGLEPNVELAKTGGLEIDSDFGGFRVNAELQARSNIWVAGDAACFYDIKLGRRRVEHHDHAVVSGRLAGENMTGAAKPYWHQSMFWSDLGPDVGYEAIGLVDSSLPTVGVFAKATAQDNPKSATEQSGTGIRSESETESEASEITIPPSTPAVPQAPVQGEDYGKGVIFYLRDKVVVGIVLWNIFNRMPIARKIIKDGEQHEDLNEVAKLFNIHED
UniProt Q13155: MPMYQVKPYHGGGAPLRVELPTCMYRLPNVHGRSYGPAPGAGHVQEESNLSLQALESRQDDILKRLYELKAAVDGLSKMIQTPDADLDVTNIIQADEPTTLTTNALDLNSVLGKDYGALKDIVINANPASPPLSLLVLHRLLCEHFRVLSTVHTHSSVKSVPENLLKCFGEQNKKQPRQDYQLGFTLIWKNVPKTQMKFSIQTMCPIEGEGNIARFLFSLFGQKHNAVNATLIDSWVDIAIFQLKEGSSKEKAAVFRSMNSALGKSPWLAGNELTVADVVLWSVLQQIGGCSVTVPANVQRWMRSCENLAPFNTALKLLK
UniProt O14734: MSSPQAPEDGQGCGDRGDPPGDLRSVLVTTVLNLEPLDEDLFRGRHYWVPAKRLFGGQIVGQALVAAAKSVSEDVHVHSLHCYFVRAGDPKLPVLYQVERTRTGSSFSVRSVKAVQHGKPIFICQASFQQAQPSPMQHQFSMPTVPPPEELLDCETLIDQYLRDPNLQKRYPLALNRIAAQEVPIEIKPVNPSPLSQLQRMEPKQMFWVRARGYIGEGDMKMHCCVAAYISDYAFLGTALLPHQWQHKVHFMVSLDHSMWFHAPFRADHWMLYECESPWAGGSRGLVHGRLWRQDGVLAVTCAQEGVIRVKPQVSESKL
UniProt P27144: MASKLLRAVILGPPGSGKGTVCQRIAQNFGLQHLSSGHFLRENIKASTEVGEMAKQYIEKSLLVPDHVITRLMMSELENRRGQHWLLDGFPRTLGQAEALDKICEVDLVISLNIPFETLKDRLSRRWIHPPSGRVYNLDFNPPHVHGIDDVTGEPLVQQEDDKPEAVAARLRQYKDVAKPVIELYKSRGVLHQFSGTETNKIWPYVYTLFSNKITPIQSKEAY

Experiments:
Test in all cases: log2 fold change, soluble protein after heating vs DMSO (PISA); higher = thermal stabilisation; K562 lysate, 10 uM; active = over 0.2 and 3.5 SD of the protein, either way, in both replicates (recomputed)
erlotinib = compound: C#Cc1cccc(Nc2ncnc3cc(OCCOC)c(OCCOC)cc23)c1 [erlotinib]
In short: (§1)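 A 30 min treatment with 10 μM compound was applied to crude K562 extract at 1 mg/mL protein in PBS pH 7.4 with 1 mM MgCl2. Heating for 3 min spanned 48°C-58°C, after which aliquots were pooled, adjusted to 0.5% NP-40 at 4°C and spun at 21,000xg for 90 min. TMTpro 16plex LC-MS/MS of the supernatant, with channel sums equalised, gave values recorded as log-two fold change in thermal stability against solvent controls, from duplicates.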

[1] = compound: C/C(=N\NC(=O)C1=CC(=CC=C1)S(=O)(=O)N2CCOCC2)/C3=C(C=CC(=C3)Cl)O
In short: as §1

[2] = compound: C1=CC(=CC=C1C2=NC3=C(N2)C=C(C=C3)C(=O)N)OC4=CC=C(C=C4)Cl
In short: as §1

[3] = compound: C1=CC2=C(C=CC(=C2)/C=C\3/C(=O)NC(=NCC4=CC=CS4)S3)N=C1
In short: as §1

[4] = compound: C1=CC2=NC=CN=C2C=C1/C=C/3\C(=O)NC(=O)S3
In short: as §1

[5] = compound: C1=CC=C(C=C1)C2=NC(=C(N2)C3=CC=NC=C3)C4=CC(=C(C=C4)Cl)O
In short: as §1

[6] = compound: C1=CC=C2C(=C1)C3=NNC4=CC=CC(=C43)C2=O
In short: as §1

[7] = compound: C1CCN(C1)C(=O)NC2=CC=CC(=C2)NC3=NC=C(C(=N3)NCCC4=CN=CN4)Br
In short: as §1

[8] = compound: C1CN(CCC1(CC2=CC=C(C=C2)Cl)N)C3=NC=NC4=C3C=CN4
In short: as §1

IRAK-1-4 Inhibitor I = compound: C1COCCN1CCN2C3=CC=CC=C3N=C2NC(=O)C4=CC(=CC=C4)[N+](=O)[O-] [IRAK-1-4 Inhibitor I]
In short: as §1

ibrutinib = compound: C=CC(=O)N1CCC[C@@H](n2nc(-c3ccc(Oc4ccccc4)cc3)c3c(N)ncnc32)C1 [ibrutinib]
In short: as §1

[9] = compound: CC(=O)c1cnc2ccc(-c3cc(Cl)c(O)c(Cl)c3)nc2c1N[C@H]1CC[C@H](CN(C)C)CC1
In short: as §1

ralimetinib = compound: CC(C)(C)Cn1c(N)nc2ccc(-c3[nH]c(C(C)(C)C)nc3-c3ccc(F)cc3)nc21 [ralimetinib]
In short: as §1

[10] = compound: CC(C)(O)CC(=O)NCCn1ccc2ncnc(Nc3ccc(Oc4cccc(C(F)(F)F)c4)c(Cl)c3)c21
In short: as §1

[11] = compound: CC(C)C1=C2N=C(C=C(N2N=C1)NCC3=CC=CC=C3)NCCCCCCN
In short: as §1

[12] = compound: CC1=C(C(CC(=O)N1)C2=CC=C(C=C2)C(F)(F)F)C(=O)NC3=C(C=C4C(=C3)C=NN4)F
In short: as §1

[13] = compound: CC1=C(C2=C(C=C1)C(=O)C3=CC=CC=C3N2CCCN)C
In short: as §1

[14] = compound: CC1=C(C=C(C=C1)NC(=O)C2=CC(=CC=C2)C(C)(C)C#N)NC3=CC4=C(C=C3)N=CN(C4=O)C
In short: as §1

[15] = compound: CC1=C(C=C(C=C1)NC(=O)C2=CC(=CC=C2)N(C)C)NC(=O)C3=CC=C(C=C3)O
In short: as §1

[16] = compound: CC1=CC=C(C=C1)SC2=C3C=C(SC3=CN=C2)C(=O)N
In short: as §1

Measured: log2 fold change

AFDN (UniProt J3KN01)
inactive: erlotinib 0.03 | [1] 0.021 | [2] -0.01 | [3] -0.029 | [4] -0.012 | [5] 0.034 | [6] 0.007 | [7] -0.019 | [8] 0.039 | IRAK-1-4 Inhibitor I -0.01 | ibrutinib 0.036 | [9] -0.012 | ralimetinib -0.009 | [10] -0.032 | [11] 0 | [12] -0.053 | [13] -0.034 | [14] -0.014 | [15] 0.036 | [16] 0.012

ACSL1 (UniProt P33121)
inactive: erlotinib 0.02 | [1] -0.104 | [2] -0.153 | [3] 0.086 | [4] 0.051 | [5] 0.025 | [6] -0.04 | [7] 0.009 | [8] 0.012 | IRAK-1-4 Inhibitor I 0.022 | ibrutinib 0.009 | [9] 0.008 | ralimetinib -0.004 | [10] -0.075 | [11] 0.01 | [12] 0.024 | [13] 0.004 | [14] -0.01 | [15] 0.026 | [16] -0.004

ACTL8 (UniProt Q9H568)
inactive: erlotinib -0.015 | [1] 0.247 | [2] -0.042 | [3] 0.012 | [4] -0.025 | [5] 0.048 | [6] -0.056 | [7] -0.069 | [8] -0.024 | IRAK-1-4 Inhibitor I 0.098 | ibrutinib 0.097 | [9] 0.066 | ralimetinib 0.001 | [10] -0.041 | [11] -0.032 | [12] 0.004 | [13] -0.052 | [14] 0.044 | [15] -0.014 | [16] -0.009

AK6 (UniProt Q9Y3D8)
inactive: erlotinib -0.007 | [1] 0.005 | [2] 0.008 | [3] -0.024 | [4] -0.009 | [5] 0.002 | [6] -0.013 | [7] -0.03 | [8] 0.013 | IRAK-1-4 Inhibitor I -0.044 | ibrutinib 0.018 | [9] -0.02 | ralimetinib 0.014 | [10] 0.008 | [11] -0.001 | [12] 0 | [13] 0.056 | [14] -0.044 | [15] 0.009 | [16] -0.029

ACTL6A (UniProt O96019)
inactive: erlotinib 0.005 | [1] 0.02 | [2] 0.017 | [3] -0.015 | [4] 0.008 | [5] -0.008 | [6] 0.001 | [7] -0.016 | [8] 0.014 | IRAK-1-4 Inhibitor I -0.006 | ibrutinib -0.019 | [9] -0.018 | ralimetinib 0.008 | [10] -0.02 | [11] 0.009 | [12] -0.009 | [13] -0.008 | [14] 0.013 | [15] -0.002 | [16] -0.008

AFF1 isoform 2 (UniProt P51825)
inactive: erlotinib -0.001 | [1] -0.085 | [2] 0.027 | [3] 0.071 | [4] -0.068 | [5] -0.007 | [6] -0.041 | [7] -0.002 | [8] 0.005 | IRAK-1-4 Inhibitor I 0.021 | ibrutinib 0.136 | [9] -0.028 | ralimetinib 0.078 | [10] -0.02 | [11] -0.001 | [12] 0.037 | [13] -0.047 | [14] 0.023 | [15] 0.02 | [16] -0.002

ADGRE2 (UniProt Q9UHX3)
inactive: erlotinib -0.061 | [1] 0.059 | [2] 0.019 | [3] -0.02 | [4] -0.025 | [5] -0.004 | [6] -0.08 | [7] 0.031 | [8] -0.038 | IRAK-1-4 Inhibitor I -0.011 | ibrutinib 0.041 | [9] -0.052 | ralimetinib -0.04 | [10] -0.071 | [11] -0.06 | [12] 0.049 | [13] -0.01 | [14] 0 | [15] 0.006 | [16] -0.084

AKNA (UniProt Q7Z591)
inactive: erlotinib 0.2 | [1] 0.124 | [2] -0.119 | [3] -0.07 | [4] 0.08 | [5] 0.028 | [6] 0.078 | [7] 0.209 | [8] 0.027 | IRAK-1-4 Inhibitor I 0.037 | ibrutinib -0.071 | [9] 0.08 | ralimetinib 0.053 | [10] -0.015 | [11] -0.002 | [12] 0.254 | [13] -0.024 | [14] -0.034 | [15] -0.155 | [16] 0.022

AGTPBP1 (UniProt Q9UPW5)
inactive: erlotinib -0.033 | [1] -0.084 | [2] 0.027 | [3] -0.029 | [4] 0.042 | [5] -0.053 | [6] -0.039 | [7] -0.017 | [8] 0.005 | IRAK-1-4 Inhibitor I 0.022 | ibrutinib -0.255 | [9] 0.001 | ralimetinib 0.013 | [10] -0.058 | [11] 0.008 | [12] -0.026 | [13] 0.051 | [14] 0.077 | [15] 0.005 | [16] 0.012

Taken from the results shown (4 entries):
ACTL8 (UniProt Q9H568)
inactive: erlotinib -0.015 | [1] 0.247 | [2] -0.042 | [3] 0.012 | [4] -0.025 | [5] 0.048 | [6] -0.056 | [7] -0.069 | [8] -0.024 | IRAK-1-4 Inhibitor I 0.098 | ibrutinib 0.097 | [9] 0.066 | ralimetinib 0.001 | [10] -0.041 | [11] -0.032 | [12] 0.004 | [13] -0.052 | [14] 0.044 | [15] -0.014 | [16] -0.009

AK6 (UniProt Q9Y3D8)
inactive: erlotinib -0.007 | [1] 0.005 | [2] 0.008 | [3] -0.024 | [4] -0.009 | [5] 0.002 | [6] -0.013 | [7] -0.03 | [8] 0.013 | IRAK-1-4 Inhibitor I -0.044 | ibrutinib 0.018 | [9] -0.02 | ralimetinib 0.014 | [10] 0.008 | [11] -0.001 | [12] 0 | [13] 0.056 | [14] -0.044 | [15] 0.009 | [16] -0.029

ACTL6A (UniProt O96019)
inactive: erlotinib 0.005 | [1] 0.02 | [2] 0.017 | [3] -0.015 | [4] 0.008 | [5] -0.008 | [6] 0.001 | [7] -0.016 | [8] 0.014 | IRAK-1-4 Inhibitor I -0.006 | ibrutinib -0.019 | [9] -0.018 | ralimetinib 0.008 | [10] -0.02 | [11] 0.009 | [12] -0.009 | [13] -0.008 | [14] 0.013 | [15] -0.002 | [16] -0.008

AFF1 isoform 2 (UniProt P51825)
inactive: erlotinib -0.001 | [1] -0.085 | [2] 0.027 | [3] 0.071 | [4] -0.068 | [5] -0.007 | [6] -0.041 | [7] -0.002 | [8] 0.005 | IRAK-1-4 Inhibitor I 0.021 | ibrutinib 0.136 | [9] -0.028 | ralimetinib 0.078 | [10] -0.02 | [11] -0.001 | [12] 0.037 | [13] -0.047 | [14] 0.023 | [15] 0.02 | [16] -0.002

Going on with the list:

ADRM1 (UniProt Q16186)
inactive: erlotinib 0.007 | [1] -0.006 | [2] 0.007 | [3] -0.026 | [4] -0.016 | [5] 0.018 | [6] -0.088 | [7] 0.012 | [8] 0.007 | IRAK-1-4 Inhibitor I 0.026 | ibrutinib 0.005 | [9] -0.009 | ralimetinib 0.027 | [10] -0.007 | [11] 0.026 | [12] -0.028 | [13] -0.011 | [14] 0.019 | [15] 0.012 | [16] -0.01

AIFM1 (UniProt O95831)
inactive: erlotinib -0.007 | [1] 0.019 | [2] -0.018 | [3] -0.007 | [4] 0.025 | [5] 0.003 | [6] 0.019 | [7] 0.016 | [8] 0.009 | IRAK-1-4 Inhibitor I 0.04 | ibrutinib 0.005 | [9] 0.004 | ralimetinib -0.024 | [10] 0.006 | [11] -0.003 | [12] -0.032 | [13] -0.016 | [14] -0.001 | [15] -0.015 | [16] 0.009

ACSF3 (UniProt Q4G176)
inactive: erlotinib 0.023 | [1] 0.076 | [2] 0.07 | [3] 0.081 | [4] 0.031 | [5] 0.002 | [6] -0.101 | [7] -0.053 | [8] 0.056 | IRAK-1-4 Inhibitor I 0.004 | ibrutinib 0.022 | [9] 0.026 | ralimetinib -0.044 | [10] 0.021 | [11] -0.002 | [12] 0.011 | [13] 0.047 | [14] -0.044 | [15] 0.032 | [16] 0.002

AIMP2 (UniProt Q13155)
inactive: erlotinib 0.021 | [1] 0.062 | [2] -0.01 | [3] 0.006 | [4] 0.002 | [5] -0.016 | [6] -0.001 | [7] 0.014 | [8] -0.036 | IRAK-1-4 Inhibitor I 0.008 | ibrutinib 0 | [9] 0.013 | ralimetinib 0.044 | [10] 0.015 | [11] 0.044 | [12] 0.002 | [13] 0.018 | [14] -0.005 | [15] 0.019 | [16] 0.028

ACOT8 (UniProt O14734)
inactive: erlotinib -0.029 | [1] -0.018 | [2] 0.02 | [3] -0.007 | [4] 0.008 | [5] -0.008 | [6] -0.206 | [7] -0.005 | [8] 0.009 | IRAK-1-4 Inhibitor I 0.053 | ibrutinib 0.001 | [9] 0.024 | ralimetinib 0.045 | [10] -0.06 | [11] 0.002 | [12] 0.02 | [13] -0.026 | [14] 0.017 | [15] 0.012 | [16] -0.022

ACTG1 (UniProt I3L4N8)
inactive: erlotinib 0.118 | [1] 0.163 | [2] -0.016 | [3] 0.029 | [4] -0.2 | [5] 0.054 | [6] -0.207 | [7] -0.142 | [8] -0.143 | IRAK-1-4 Inhibitor I -0.013 | ibrutinib 0.191 | [9] 0.053 | ralimetinib -0.019 | [10] 0.065 | [11] -0.184 | [12] 0.038 | [14] -0.181 | [15] -0.006 | [16] 0.033
active: [13] -0.677

AK4 (UniProt P27144)
inactive: erlotinib -0.024 | [1] 0.024 | [2] -0.024 | [3] -0.01 | [4] -0.01 | [5] 0.015 | [6] 0.015 | [7] 0.036 | [8] 0.02 | IRAK-1-4 Inhibitor I -0.002 | ibrutinib 0.06 | [9] -0.019 | ralimetinib -0.036 | [10] -0.016 | [11] -0.008 | [12] 0.021 | [13] -0.005 | [14] 0.012 | [15] 0.022 | [16] -0.017
